# ± gives the standard deviation of the averaged measurements. The list shows a part of the results.
# Experiments:
# Test in all cases: NP40-soluble protein abundance relative to vehicle (solubility fold change) (ratio); higher = more soluble protein in presence of GTP
# PREB = biological target: T1, PREB (UniProt Q9HCU5)
# T1 sequence (whole entry): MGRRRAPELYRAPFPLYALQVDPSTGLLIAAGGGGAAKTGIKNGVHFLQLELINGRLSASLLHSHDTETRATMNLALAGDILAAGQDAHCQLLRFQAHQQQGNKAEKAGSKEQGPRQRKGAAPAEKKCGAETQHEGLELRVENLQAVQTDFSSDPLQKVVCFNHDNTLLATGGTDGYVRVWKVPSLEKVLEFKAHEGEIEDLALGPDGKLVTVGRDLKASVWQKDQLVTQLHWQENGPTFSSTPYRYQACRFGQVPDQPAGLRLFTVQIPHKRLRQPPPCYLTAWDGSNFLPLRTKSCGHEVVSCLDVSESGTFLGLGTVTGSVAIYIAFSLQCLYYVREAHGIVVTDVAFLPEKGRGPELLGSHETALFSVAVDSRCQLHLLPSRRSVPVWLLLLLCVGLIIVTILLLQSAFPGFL
# Outline: (§1)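 In three independent experiments, Jurkat crude lysate made by Dounce homogenisation was treated for 10 min at room temperature and then 3 min at 37 °C with eight concentrations ranging from 0.1 to 10 mM. It was then solubilised with 0.8% NP40 plus benzonase for 60 min at 4 °C and ultracentrifuged. The supernatant was TMT-labelled for LC-MS/MS, and each value is the fold change against the detergent-processed vehicle for the same replicate, using vsn-normalised intensities.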
# PRKRIP1 = biological target: T2, PRKRIP1 (UniProt Q9H875)
# T2 sequence (whole entry): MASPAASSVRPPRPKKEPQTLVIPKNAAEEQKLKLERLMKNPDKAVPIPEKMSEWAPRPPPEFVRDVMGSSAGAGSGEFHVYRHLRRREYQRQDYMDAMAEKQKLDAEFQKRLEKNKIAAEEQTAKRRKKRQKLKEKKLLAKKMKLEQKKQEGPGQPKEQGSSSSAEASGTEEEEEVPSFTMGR
# Outline: as §1
# RBM12 = biological target: T3, RBM12 (UniProt Q9NTZ6)
# T3 sequence (whole entry): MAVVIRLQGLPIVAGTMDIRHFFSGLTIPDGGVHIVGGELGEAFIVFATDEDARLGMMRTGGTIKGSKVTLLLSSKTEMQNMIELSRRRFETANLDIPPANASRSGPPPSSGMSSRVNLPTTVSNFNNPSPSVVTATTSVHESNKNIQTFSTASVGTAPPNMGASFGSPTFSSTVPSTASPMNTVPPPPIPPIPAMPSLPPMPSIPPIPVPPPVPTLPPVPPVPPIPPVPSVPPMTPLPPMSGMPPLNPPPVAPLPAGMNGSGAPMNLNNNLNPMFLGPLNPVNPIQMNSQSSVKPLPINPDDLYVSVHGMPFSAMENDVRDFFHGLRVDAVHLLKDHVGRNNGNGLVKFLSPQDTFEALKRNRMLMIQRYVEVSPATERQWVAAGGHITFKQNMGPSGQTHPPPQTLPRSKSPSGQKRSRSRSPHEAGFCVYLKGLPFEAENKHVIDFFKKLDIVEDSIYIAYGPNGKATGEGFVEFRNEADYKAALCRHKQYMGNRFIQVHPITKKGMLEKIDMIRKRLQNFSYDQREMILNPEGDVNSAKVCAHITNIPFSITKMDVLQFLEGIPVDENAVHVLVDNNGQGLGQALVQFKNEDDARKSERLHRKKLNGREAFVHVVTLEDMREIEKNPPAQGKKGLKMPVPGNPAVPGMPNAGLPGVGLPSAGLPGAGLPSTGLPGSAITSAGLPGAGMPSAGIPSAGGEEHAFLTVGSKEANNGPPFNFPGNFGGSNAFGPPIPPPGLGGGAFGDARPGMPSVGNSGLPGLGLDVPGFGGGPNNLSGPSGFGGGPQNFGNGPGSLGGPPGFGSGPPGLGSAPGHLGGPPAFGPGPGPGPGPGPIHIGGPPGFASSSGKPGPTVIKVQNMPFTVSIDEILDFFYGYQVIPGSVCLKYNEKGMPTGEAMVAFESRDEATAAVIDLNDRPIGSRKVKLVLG
# Outline: as §1
# [1] = biological target: T4, UniProt Q9GZT6 and related entries
# T4 sequence (whole entry): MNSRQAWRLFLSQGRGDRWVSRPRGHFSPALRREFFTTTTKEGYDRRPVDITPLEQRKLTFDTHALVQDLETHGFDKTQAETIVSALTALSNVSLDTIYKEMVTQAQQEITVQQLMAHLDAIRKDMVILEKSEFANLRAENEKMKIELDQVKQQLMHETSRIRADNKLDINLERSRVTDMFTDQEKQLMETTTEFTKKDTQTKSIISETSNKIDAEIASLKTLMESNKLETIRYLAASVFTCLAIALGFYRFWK
# Outline: as §1
# UniProt Q9H0G5 = biological target: T5, UniProt Q9H0G5
# T5 sequence (whole entry): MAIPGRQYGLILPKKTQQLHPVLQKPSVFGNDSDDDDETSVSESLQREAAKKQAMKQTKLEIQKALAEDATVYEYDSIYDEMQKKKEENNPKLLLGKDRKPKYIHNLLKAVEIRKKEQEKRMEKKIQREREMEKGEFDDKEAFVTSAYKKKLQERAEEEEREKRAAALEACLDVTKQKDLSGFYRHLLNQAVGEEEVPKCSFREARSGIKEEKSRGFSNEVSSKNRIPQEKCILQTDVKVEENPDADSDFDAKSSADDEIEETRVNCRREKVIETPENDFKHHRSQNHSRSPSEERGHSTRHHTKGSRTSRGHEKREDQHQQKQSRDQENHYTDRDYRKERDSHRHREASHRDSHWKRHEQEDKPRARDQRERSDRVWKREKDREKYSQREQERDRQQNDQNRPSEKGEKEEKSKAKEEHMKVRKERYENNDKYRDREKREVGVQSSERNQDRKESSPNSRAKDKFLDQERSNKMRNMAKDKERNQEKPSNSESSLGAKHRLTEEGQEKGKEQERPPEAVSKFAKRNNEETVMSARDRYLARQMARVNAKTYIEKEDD
# Outline: as §1
structure (smiles),measurement,setting,value
Nc1nc2c(ncn2[C@@H]2O[C@H](COP(=O)(O)OP(=O)(O)OP(=O)(O)O)[C@@H](O)[C@H]2O)c(=O)[nH]1 [guanosine triphosphate],NP40-soluble protein abundance,PREB; concentration: 1mM,0.985 ± 0.014
same,NP40-soluble protein abundance,PREB; concentration: 2mM,1.07 ± 0.055
same,NP40-soluble protein abundance,PREB; concentration: 4mM,1.02 ± 0.015
same,NP40-soluble protein abundance,PREB; concentration: 6mM,0.985 ± 0.02
same,NP40-soluble protein abundance,PREB; concentration: 8mM,0.96 ± 0.032
same,NP40-soluble protein abundance,PREB; concentration: 10mM,0.965 ± 0.043
same,NP40-soluble protein abundance,PRKRIP1; concentration: 0.1mM,0.918 ± 0.034
same,NP40-soluble protein abundance,PRKRIP1; concentration: 0.5mM,0.908 ± 0.068
same,NP40-soluble protein abundance,PRKRIP1; concentration: 1mM,0.982 ± 0.046
same,NP40-soluble protein abundance,PRKRIP1; concentration: 2mM,0.999 ± 0.13
same,NP40-soluble protein abundance,PRKRIP1; concentration: 4mM,0.962 ± 0.089
same,NP40-soluble protein abundance,PRKRIP1; concentration: 6mM,1.02 ± 0.14
same,NP40-soluble protein abundance,PRKRIP1; concentration: 8mM,1 ± 0.1
same,NP40-soluble protein abundance,PRKRIP1; concentration: 10mM,1.15 ± 0.02
same,NP40-soluble protein abundance,RBM12; concentration: 0.1mM,0.961 ± 0.029
same,NP40-soluble protein abundance,RBM12; concentration: 0.5mM,0.967 ± 0.042
same,NP40-soluble protein abundance,RBM12; concentration: 1mM,0.936 ± 0.058
same,NP40-soluble protein abundance,RBM12; concentration: 2mM,0.894 ± 0.06
same,NP40-soluble protein abundance,RBM12; concentration: 4mM,0.883 ± 0.055
same,NP40-soluble protein abundance,RBM12; concentration: 6mM,0.885 ± 0.07
same,NP40-soluble protein abundance,RBM12; concentration: 8mM,0.873 ± 0.054
same,NP40-soluble protein abundance,RBM12; concentration: 10mM,0.857 ± 0.064
same,NP40-soluble protein abundance,[1]; concentration: 0.1mM,0.843 ± 0.048
same,NP40-soluble protein abundance,[1]; concentration: 0.5mM,0.82 ± 0.044
same,NP40-soluble protein abundance,[1]; concentration: 1mM,0.983 ± 0.063
same,NP40-soluble protein abundance,[1]; concentration: 2mM,0.904 ± 0.036
same,NP40-soluble protein abundance,[1]; concentration: 4mM,0.891 ± 0.07
same,NP40-soluble protein abundance,[1]; concentration: 6mM,0.944 ± 0.073
same,NP40-soluble protein abundance,[1]; concentration: 8mM,0.922 ± 0.079
same,NP40-soluble protein abundance,[1]; concentration: 10mM,0.953 ± 0.048
same,NP40-soluble protein abundance,UniProt Q9H0G5; concentration: 0.1mM,0.999 ± 0.055
same,NP40-soluble protein abundance,UniProt Q9H0G5; concentration: 0.5mM,1.01 ± 0.034
same,NP40-soluble protein abundance,UniProt Q9H0G5; concentration: 1mM,1.04 ± 0.018
same,NP40-soluble protein abundance,UniProt Q9H0G5; concentration: 2mM,1.02 ± 0.067

# Laid out differently: entries from further up
structure (smiles)	measurement	setting	value
Nc1nc2c(ncn2[C@@H]2O[C@H](COP(=O)(O)OP(=O)(O)OP(=O)(O)O)[C@@H](O)[C@H]2O)c(=O)[nH]1 [guanosine triphosphate]	NP40-soluble protein abundance	PRKRIP1; concentration: 1mM	0.982 ± 0.046
same	NP40-soluble protein abundance	PRKRIP1; concentration: 2mM	0.999 ± 0.13

# Source: the supplement of paper PMC6411743
